Taken from: PubChem BioAssay AID1259254 (NCATS, 2017)
Shown is one part, drawn at random, of about 59,000 deposited reagents. About 1,550 of them (2.6%) were called active. 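G2 share is only a proxy for re-replication; each gene was hit by three separate siRNAs, and active genes were retested.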 Reagents against one gene are numbered here. Further read-outs or replicates are left out here. No sequences are given here. The record does not give: the amount of reagent.

Screen: 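Finding genes that stop cells copying their DNA twice in one cycle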 (primary screen)
Cell system: human HCT116 colorectal cancer cells
Reagents: single siRNA against human genes
Timing: 3 days
Detection: 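Imaged Hoechst DNA stain sorts each cell into a cycle phase by DNA amount; per plate, G2 fraction set to 0% for non-targeting and 100% for GMNN siRNA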
Scale: G2 robust z-score: higher = more G2 cells, more excess DNA replication
Active means: 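An siRNA counts as active if its G2 robust z-score lies at least 5 MADs above the screen median; here such calls match roughly 38% of GMNN control or more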

What did the screen give for C10orf120 #1?
G2 robust z-score: -0.695; activity call: inactive

How did the screen score C10orf120 #2?
G2 robust z-score: 0.632; activity call: inactive

For C10orf120 #3, how do the results read?
G2 robust z-score: 0.211; activity call: inactive

With MLEC #1, how do the results read?
G2 robust z-score: 2.32; activity call: inactive

For MLEC #2, how do the results read?
G2 robust z-score: -0.395; activity call: inactive

How did the screen score MLEC #3?
G2 robust z-score: -0.392; activity call: inactive

What did the screen give for HOATZ #1?
G2 robust z-score: 4.66; activity call: inactive

With HOATZ #2, how do the results read?
G2 robust z-score: 4; activity call: inactive

What is on record for HOATZ #3?
G2 robust z-score: -0.259; activity call: inactive

With MSANTD1 #1, what was measured?
G2 robust z-score: 0.689; activity call: inactive

Which result is listed for MSANTD1 #2?
G2 robust z-score: 0.826; activity call: inactive

For MSANTD1 #3, what was measured?
G2 robust z-score: 2.58; activity call: inactive

Which result is listed for USH1G #1?
G2 robust z-score: 1.19; activity call: inactive

How did the screen score USH1G #2?
G2 robust z-score: -0.352; activity call: inactive

What is on record for USH1G #3?
G2 robust z-score: -0.448; activity call: inactive

2 successive records already listed, quoted:
C10orf120 #2 → G2 robust z-score = 0.632; activity call = inactive
C10orf120 #3 → G2 robust z-score = 0.211; activity call = inactive

Continued:
For MYLK2 #1, what was measured?
G2 robust z-score: 0.0963; activity call: inactive

For MYLK2 #2, what was measured?
G2 robust z-score: 0.795; activity call: inactive

What is on record for MYLK2 #3?
G2 robust z-score: -0.624; activity call: inactive

Which result is listed for C6orf132 #1?
G2 robust z-score: -0.854; activity call: inactive

For C6orf132 #2, what was measured?
G2 robust z-score: -0.6; activity call: inactive

How did the screen score C6orf132 #3?
G2 robust z-score: 0.0885; activity call: inactive

What is on record for C6orf132 #4?
G2 robust z-score: -0.715; activity call: inactive

What did the screen give for C6orf132 #5?
G2 robust z-score: -1.06; activity call: inactive

With C6orf132 #6, what was measured?
G2 robust z-score: 1.03; activity call: inactive
